The target in test [1] is lamellipodin C-terminal domain fragment LPD^850–1250 with C-terminal His6 tag (UniProt Q70E73). The test is described as follows: clustering on supported lipid bilayers (confocal microscopy); TIL-His6 tethered together with LPD^850–1250-His6 or PRM7-His6 on DOPC/Ni2+-NTA lipid bilayers, no endophilin; both purified.
For test [2] the target is unchanged. Description: liquid-liquid phase separation (droplets seen by microscopy); LPD mixed with VASP; conditions only in Supplementary Fig. 9b; both purified.

Amino acid sequences for entries named in this document (tags omitted). Residues count along the entry.
UniProt Q70E73, residues 850-1250: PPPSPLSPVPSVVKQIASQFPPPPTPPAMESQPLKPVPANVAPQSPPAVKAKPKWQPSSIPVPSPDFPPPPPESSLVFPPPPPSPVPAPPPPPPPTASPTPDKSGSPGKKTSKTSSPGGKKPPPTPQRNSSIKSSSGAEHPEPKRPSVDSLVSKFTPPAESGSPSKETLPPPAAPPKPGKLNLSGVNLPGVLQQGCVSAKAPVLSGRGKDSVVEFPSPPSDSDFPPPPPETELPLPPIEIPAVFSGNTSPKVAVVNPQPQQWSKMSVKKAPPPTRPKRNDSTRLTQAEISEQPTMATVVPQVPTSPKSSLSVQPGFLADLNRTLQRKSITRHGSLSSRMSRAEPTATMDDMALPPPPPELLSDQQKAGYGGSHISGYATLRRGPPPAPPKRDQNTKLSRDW
UniProt P08588, residues 246-325: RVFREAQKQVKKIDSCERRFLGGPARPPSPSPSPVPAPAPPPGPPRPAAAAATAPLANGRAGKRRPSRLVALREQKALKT
UniProt P50552: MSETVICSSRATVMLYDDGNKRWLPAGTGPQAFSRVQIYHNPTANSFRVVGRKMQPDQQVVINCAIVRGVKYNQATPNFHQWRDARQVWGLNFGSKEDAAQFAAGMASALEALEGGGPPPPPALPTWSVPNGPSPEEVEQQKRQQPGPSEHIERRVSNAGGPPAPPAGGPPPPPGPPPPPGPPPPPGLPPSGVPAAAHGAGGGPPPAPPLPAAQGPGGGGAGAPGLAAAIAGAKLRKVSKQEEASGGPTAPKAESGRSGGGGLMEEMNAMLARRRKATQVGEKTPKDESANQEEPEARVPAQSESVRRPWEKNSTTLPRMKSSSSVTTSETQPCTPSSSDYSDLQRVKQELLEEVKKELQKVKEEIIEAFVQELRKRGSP

These are yes or no findings as the source states them, for the method shown. Some binding calls cover weakened binding; strength is not graded here.

Regarding “TIL-His6 of the human β1-adrenergic receptor (from UniProt P08588 246-325) (domain or fragment)”, the binding entry in test [1] was “binds”. As to “human VASP (wild type) (from UniProt P50552 1-380)”, the binding entry in test [2] was “binds”.

(Values after article PMC9418313, “Multivalent interactions between molecular components involved in fast endophilin mediated endocytosis drive protein phase separation” (Nature Communications, 2022).)
